Reference: the supplement of paper PMC10849652
The other results are listed elsewhere or left out.

Chains of the proteins cited; added tags and fusions are not shown. Lines headed by an entry give the natural chain unless they say otherwise; changes in a name come on top.
UniProt P04632: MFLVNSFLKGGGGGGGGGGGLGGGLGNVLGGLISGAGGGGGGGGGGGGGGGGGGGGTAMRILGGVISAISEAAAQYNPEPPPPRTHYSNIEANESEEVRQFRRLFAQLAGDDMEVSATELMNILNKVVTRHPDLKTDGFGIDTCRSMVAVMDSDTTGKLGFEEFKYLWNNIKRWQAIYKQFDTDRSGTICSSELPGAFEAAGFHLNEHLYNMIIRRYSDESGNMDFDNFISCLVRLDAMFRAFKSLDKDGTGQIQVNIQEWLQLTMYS
UniProt Q2NKX9: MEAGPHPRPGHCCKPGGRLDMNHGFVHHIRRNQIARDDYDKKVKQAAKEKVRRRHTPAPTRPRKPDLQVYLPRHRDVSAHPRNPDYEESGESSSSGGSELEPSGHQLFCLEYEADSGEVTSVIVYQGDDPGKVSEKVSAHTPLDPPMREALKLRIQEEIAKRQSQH
UniProt Q8WUR7: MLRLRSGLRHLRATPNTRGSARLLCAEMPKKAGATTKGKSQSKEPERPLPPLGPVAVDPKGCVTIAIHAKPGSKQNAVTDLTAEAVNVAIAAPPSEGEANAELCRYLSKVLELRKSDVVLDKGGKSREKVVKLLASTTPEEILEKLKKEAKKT
UniProt A6NDU8: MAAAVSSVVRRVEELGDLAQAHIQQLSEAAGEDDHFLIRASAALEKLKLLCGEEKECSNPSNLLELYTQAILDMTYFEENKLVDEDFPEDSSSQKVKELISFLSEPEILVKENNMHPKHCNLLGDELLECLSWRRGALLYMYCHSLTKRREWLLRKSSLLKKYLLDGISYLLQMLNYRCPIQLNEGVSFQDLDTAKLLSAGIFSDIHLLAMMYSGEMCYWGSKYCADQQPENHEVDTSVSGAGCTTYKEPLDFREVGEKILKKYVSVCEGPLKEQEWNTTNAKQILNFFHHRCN
UniProt Q8N5S9: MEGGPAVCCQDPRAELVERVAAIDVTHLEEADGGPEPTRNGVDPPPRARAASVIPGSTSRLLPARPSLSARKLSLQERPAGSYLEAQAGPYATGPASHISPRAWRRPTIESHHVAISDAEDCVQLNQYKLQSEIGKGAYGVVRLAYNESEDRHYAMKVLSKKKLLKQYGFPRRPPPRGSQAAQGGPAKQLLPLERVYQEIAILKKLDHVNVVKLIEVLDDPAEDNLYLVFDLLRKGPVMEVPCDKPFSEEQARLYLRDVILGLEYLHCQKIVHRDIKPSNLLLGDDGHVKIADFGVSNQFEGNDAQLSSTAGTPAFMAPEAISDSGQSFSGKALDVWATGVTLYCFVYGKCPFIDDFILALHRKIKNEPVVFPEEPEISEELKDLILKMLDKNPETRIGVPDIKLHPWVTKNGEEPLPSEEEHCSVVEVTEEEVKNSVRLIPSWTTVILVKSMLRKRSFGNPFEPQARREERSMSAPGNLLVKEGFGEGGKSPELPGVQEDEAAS
UniProt O75155: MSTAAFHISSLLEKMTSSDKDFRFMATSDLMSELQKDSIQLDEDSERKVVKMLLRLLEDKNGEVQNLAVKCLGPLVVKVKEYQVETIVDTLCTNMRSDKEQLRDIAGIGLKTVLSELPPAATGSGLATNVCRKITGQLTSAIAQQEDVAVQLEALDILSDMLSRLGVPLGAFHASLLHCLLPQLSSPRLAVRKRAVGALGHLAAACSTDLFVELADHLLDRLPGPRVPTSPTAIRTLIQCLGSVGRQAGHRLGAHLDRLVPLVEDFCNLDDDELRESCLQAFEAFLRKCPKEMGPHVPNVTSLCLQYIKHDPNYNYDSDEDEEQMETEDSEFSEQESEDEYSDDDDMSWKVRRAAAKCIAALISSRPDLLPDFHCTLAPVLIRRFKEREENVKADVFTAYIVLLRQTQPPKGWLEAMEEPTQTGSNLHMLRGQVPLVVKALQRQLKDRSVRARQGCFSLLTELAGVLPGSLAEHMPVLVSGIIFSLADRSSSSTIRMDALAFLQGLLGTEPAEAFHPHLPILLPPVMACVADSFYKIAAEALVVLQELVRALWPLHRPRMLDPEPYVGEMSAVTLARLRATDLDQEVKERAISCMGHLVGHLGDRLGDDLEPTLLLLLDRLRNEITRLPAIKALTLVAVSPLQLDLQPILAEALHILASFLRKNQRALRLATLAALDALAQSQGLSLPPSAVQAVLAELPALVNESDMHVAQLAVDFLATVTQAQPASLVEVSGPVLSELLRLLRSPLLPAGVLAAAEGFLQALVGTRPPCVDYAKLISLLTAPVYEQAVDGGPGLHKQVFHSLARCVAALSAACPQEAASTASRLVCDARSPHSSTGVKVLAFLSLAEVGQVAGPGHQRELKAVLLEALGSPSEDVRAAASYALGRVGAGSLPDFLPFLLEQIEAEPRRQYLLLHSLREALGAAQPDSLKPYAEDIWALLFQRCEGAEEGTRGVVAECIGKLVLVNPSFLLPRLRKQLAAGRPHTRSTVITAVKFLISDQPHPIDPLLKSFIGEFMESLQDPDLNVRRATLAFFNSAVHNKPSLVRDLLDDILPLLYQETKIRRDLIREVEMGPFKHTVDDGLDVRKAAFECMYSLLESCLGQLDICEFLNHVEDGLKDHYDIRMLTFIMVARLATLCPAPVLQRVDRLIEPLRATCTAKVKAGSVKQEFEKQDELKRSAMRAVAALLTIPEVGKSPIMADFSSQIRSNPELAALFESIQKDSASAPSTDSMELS
UniProt Q9H8G2: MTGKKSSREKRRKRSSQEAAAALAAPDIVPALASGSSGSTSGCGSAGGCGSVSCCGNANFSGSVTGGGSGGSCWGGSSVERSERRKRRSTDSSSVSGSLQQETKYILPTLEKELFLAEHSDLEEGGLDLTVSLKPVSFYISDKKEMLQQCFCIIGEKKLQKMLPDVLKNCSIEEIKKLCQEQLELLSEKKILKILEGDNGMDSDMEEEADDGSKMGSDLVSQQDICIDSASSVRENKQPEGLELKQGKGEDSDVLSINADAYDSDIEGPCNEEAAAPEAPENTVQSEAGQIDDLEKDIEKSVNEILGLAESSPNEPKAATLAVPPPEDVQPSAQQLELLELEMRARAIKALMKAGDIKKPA
UniProt O75808: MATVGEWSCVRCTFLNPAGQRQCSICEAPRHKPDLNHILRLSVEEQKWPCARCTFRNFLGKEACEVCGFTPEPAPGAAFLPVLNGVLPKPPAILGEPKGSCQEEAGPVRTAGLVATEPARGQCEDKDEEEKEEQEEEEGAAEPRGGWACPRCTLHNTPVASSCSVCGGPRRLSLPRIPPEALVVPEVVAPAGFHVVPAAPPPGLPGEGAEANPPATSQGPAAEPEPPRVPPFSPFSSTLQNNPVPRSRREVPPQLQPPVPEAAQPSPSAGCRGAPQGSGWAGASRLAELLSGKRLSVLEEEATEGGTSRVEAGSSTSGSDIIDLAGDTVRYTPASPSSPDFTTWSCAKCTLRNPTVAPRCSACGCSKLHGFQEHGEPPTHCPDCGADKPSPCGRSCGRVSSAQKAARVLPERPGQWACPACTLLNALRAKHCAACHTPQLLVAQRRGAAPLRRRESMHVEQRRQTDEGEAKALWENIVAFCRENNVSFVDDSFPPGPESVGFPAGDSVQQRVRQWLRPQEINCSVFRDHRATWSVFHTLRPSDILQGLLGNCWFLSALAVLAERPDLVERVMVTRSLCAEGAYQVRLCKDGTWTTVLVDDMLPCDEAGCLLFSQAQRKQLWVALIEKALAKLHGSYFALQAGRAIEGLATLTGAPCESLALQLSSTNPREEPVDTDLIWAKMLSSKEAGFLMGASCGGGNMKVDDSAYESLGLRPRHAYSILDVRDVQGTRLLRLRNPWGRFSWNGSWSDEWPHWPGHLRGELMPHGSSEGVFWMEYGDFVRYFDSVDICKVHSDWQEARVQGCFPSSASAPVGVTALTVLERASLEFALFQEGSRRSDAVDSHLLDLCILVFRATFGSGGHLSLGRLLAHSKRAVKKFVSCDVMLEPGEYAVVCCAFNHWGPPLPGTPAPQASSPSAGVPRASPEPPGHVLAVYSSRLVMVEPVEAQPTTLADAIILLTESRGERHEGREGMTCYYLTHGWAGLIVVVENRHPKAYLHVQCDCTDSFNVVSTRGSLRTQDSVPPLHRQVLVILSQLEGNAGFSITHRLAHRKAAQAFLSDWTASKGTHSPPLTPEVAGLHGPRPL
UniProt P27824: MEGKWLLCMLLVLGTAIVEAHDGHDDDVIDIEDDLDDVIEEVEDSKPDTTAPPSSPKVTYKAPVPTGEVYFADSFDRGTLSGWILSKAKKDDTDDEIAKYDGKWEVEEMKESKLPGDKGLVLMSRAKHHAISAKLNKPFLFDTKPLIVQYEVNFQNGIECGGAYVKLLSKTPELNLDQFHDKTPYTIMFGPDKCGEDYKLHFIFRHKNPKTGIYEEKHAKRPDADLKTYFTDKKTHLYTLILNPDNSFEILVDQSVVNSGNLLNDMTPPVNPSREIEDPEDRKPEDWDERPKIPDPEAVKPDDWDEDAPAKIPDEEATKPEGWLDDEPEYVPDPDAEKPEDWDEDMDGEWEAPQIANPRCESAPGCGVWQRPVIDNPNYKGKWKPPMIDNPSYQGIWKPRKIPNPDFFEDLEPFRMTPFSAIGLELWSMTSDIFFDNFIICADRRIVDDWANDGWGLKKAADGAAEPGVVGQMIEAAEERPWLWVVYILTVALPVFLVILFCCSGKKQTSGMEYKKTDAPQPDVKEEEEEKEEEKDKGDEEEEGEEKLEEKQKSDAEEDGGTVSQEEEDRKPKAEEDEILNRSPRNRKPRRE
UniProt Q96K31: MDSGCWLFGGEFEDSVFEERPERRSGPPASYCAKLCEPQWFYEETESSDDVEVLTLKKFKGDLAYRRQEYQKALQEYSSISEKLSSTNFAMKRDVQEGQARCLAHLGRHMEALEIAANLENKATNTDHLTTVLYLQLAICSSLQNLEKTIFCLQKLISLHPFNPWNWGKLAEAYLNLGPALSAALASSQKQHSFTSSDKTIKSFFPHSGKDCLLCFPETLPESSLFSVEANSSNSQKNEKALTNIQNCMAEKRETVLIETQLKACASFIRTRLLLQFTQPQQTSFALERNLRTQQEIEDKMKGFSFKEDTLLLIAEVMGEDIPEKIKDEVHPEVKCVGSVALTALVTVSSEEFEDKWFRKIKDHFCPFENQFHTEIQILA
UniProt Q49AR2: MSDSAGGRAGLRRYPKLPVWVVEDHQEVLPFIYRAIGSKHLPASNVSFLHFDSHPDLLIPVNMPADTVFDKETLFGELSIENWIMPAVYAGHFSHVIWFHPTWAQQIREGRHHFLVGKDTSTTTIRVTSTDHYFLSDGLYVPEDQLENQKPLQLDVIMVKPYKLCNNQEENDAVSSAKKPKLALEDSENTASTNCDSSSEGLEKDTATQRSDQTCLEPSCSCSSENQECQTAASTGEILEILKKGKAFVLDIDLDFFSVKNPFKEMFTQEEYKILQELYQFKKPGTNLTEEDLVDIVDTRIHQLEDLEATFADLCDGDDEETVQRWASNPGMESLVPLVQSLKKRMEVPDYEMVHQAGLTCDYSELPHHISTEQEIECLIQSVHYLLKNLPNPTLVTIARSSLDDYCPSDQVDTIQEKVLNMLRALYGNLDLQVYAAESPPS
UniProt Q9H7E9: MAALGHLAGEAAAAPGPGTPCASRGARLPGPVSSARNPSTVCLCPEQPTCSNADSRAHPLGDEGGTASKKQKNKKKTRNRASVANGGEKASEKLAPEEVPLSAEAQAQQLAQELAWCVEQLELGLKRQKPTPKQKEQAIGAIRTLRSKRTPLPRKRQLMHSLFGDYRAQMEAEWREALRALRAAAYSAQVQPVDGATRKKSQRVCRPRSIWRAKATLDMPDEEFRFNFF
UniProt Q13555: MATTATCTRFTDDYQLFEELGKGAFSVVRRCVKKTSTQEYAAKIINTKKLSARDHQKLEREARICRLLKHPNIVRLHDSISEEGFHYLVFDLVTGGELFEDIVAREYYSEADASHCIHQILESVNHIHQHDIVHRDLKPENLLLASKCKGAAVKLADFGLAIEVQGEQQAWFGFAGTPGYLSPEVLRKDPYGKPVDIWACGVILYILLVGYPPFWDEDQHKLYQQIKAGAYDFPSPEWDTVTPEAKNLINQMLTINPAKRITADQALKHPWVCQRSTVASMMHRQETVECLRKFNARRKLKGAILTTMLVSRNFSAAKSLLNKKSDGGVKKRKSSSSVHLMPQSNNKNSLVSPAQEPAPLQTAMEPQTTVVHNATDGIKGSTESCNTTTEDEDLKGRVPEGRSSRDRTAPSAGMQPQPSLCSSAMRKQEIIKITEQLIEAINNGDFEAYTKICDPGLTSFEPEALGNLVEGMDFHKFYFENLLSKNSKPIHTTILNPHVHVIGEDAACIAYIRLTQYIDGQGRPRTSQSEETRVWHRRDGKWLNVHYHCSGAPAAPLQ

How the values were obtained:
Assay in all cases: log2 fold change, soluble protein after heating vs DMSO (PISA); higher = thermal stabilisation; K562 lysate, 10 uM; active = over 0.2 and 3.5 SD of the protein, either way, in both replicates (recomputed)
lapatinib = compound: CS(=O)(=O)CCNCc1ccc(-c2ccc3ncnc(Nc4ccc(OCc5cccc(F)c5)c(Cl)c4)c3c2)o1 [lapatinib]
Summary of the method: (§1)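 The values are log-two fold changes in thermal stability compared with solvent controls and come from duplicates. They were obtained by TMTpro 16plex LC-MS/MS, with channel sums equalised, on the supernatant after 21,000xg for 90 min. That supernatant came from crude K562 extract at 1 mg/mL protein treated with 10 μM compound for 30 min, heated for 3 min across 48°C-58°C, pooled and brought to 0.5% NP-40 at 4°C.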

pictilisib = compound: CS(=O)(=O)N1CCN(Cc2cc3nc(-c4cccc5[nH]ncc45)nc(N4CCOCC4)c3s2)CC1 [pictilisib]
Summary of the method: as §1

crizotinib = compound: C[C@@H](Oc1cc(-c2cnn(C3CCNCC3)c2)cnc1N)c1c(Cl)ccc(F)c1Cl [crizotinib]
Summary of the method: as §1

[1] = compound: C[C@H](C1=CC=C(C=C1)C(=O)NC2=C3C=CNC3=NC=C2)N
Summary of the method: as §1

duvelisib = compound: C[C@H](Nc1ncnc2nc[nH]c12)c1cc2cccc(Cl)c2c(=O)n1-c1ccccc1 [duvelisib]
Summary of the method: as §1

gandotinib = compound: Cc1cc(Nc2cc(CN3CCOCC3)c3nc(C)c(Cc4ccc(Cl)cc4F)n3n2)n[nH]1 [gandotinib]
Summary of the method: as §1

tozasertib = compound: Cc1cc(Nc2cc(N3CCN(C)CC3)nc(Sc3ccc(NC(=O)C4CC4)cc3)n2)n[nH]1 [tozasertib]
Summary of the method: as §1

doramapimod = compound: Cc1ccc(-n2nc(C(C)(C)C)cc2NC(=O)Nc2ccc(OCCN3CCOCC3)c3ccccc23)cc1 [doramapimod]
Summary of the method: as §1

bafetinib = compound: Cc1ccc(NC(=O)c2ccc(CN3CC[C@H](N(C)C)C3)c(C(F)(F)F)c2)cc1Nc1nccc(-c2cncnc2)n1 [bafetinib]
Summary of the method: as §1

[2] = compound: Cc1cccc(CC(=O)N2CCc3c2ccc(-c2cn(C)c4ncnc(N)c24)c3F)n1
Summary of the method: as §1

nilotinib = compound: Cc1cn(-c2cc(NC(=O)c3ccc(C)c(Nc4nccc(-c5cccnc5)n4)c3)cc(C(F)(F)F)c2)cn1 [nilotinib]
Summary of the method: as §1

[3] = compound: Cc1nc(Nc2n[nH]c3c2CN(C(=O)N[C@H](CN(C)C)c2ccccc2)C3(C)C)c2sccc2n1
Summary of the method: as §1

dasatinib = compound: Cc1nc(Nc2ncc(C(=O)Nc3c(C)cccc3Cl)s2)cc(N2CCN(CCO)CC2)n1 [dasatinib]
Summary of the method: as §1

[4] = compound: Cc1ncc(-c2ccnc(Nc3ccc(S(C)(=O)=O)cc3)n2)n1C(C)C
Summary of the method: as §1

[5] = compound: Cn1cc(-c2ccc3c(c2)CCN3C(=O)Cc2cccc(C(F)(F)F)c2)c2c(N)ncnc21
Summary of the method: as §1

quisinostat = compound: Cn1cc(CNCC2CCN(c3ncc(C(=O)NO)cn3)CC2)c2ccccc21 [quisinostat]
Summary of the method: as §1

tipifarnib = compound: Cn1cncc1[C@@](N)(c1ccc(Cl)cc1)c1ccc2c(c1)c(-c1cccc(Cl)c1)cc(=O)n2C [tipifarnib]
Summary of the method: as §1

[6] = compound: NC(=O)Nc1cc(-c2cccc(F)c2)sc1C(=O)N[C@H]1CCCNC1
Summary of the method: as §1

[7] = compound: NC(=O)c1cnc(N[C@@H]2CCCC[C@@H]2N)nc1Nc1cccc(-n2nccn2)c1
Summary of the method: as §1

[8] = compound: NC1(c2ccc(-c3nc4ccn5c(=O)[nH]nc5c4cc3-c3ccccc3)cc2)CCC1
Summary of the method: as §1

Measured: log2 fold change

CAPNS1 (UniProt P04632)
inactive: lapatinib 0.064 | pictilisib 0.024 | crizotinib 0.047 | [1] -0.21 | duvelisib -0.015 | gandotinib 0.15 | tozasertib -0.042 | doramapimod 0.079 | bafetinib 0.016 | [2] 0.005 | nilotinib -0.007 | [3] 0.027 | dasatinib 0.035 | [4] -0.002 | [5] -0.014 | quisinostat 0.078 | tipifarnib 0.017 | [6] -0.077 | [7] -0.05 | [8] 0.01

C2orf68 (UniProt Q2NKX9)
inactive: lapatinib -0.023 | pictilisib 0.017 | crizotinib 0.045 | [1] -0.105 | duvelisib -0.053 | gandotinib 0.092 | tozasertib 0.061 | doramapimod 0.147 | bafetinib -0.073 | [2] -0.087 | nilotinib 0.075 | [3] -0.038 | dasatinib 0.076 | [4] -0.112 | [5] 0.035 | quisinostat -0.027 | tipifarnib 0.103 | [6] -0.046 | [7] -0.034 | [8] 0.026

C15orf40 (UniProt Q8WUR7)
inactive: lapatinib -0.015 | pictilisib -0.073 | crizotinib 0.003 | [1] -0.076 | duvelisib 0.013 | gandotinib 0.095 | tozasertib 0.028 | doramapimod 0.017 | bafetinib -0.041 | [2] 0.038 | nilotinib 0.046 | [3] -0.069 | dasatinib 0.035 | [4] 0.11 | [5] -0.005 | quisinostat -0.016 | tipifarnib -0.113 | [6] -0.027 | [7] -0.023 | [8] -0.016

CALCOCO2 isoform 4 (UniProt Q13137)
inactive: lapatinib -0.007 | pictilisib -0.015 | crizotinib 0.009 | [1] -0.066 | duvelisib 0.016 | gandotinib 0.034 | tozasertib 0.019 | doramapimod -0.005 | bafetinib 0.009 | [2] 0.035 | nilotinib -0.018 | [3] 0.035 | dasatinib -0.005 | [4] 0.035 | [5] 0.024 | quisinostat 0 | tipifarnib 0.021 | [6] 0.009 | [7] 0.003 | [8] -0.008

C5orf51 (UniProt A6NDU8)
inactive: lapatinib 0.018 | pictilisib -0.003 | crizotinib -0.024 | [1] 0.039 | duvelisib -0.023 | gandotinib -0.143 | tozasertib -0.037 | doramapimod -0.027 | bafetinib -0.031 | [2] -0.037 | nilotinib -0.061 | [3] 0.006 | dasatinib -0.029 | [4] 0.017 | [5] 0.02 | quisinostat -0.066 | tipifarnib 0.026 | [6] 0.1 | [7] 0.002 | [8] -0.023

CAPZA2 (UniProt P47755)
inactive: lapatinib 0.001 | pictilisib -0.041 | crizotinib 0.001 | [1] 0.027 | duvelisib 0.009 | gandotinib -0.035 | tozasertib 0.015 | doramapimod 0 | bafetinib 0.043 | [2] -0.056 | nilotinib -0.002 | [3] -0.001 | dasatinib 0.002 | [4] 0 | [5] -0.043 | quisinostat -0.002 | tipifarnib -0.014 | [6] -0.004 | [7] -0.019 | [8] 0.008

Retrieved one by one from above, two records:
C5orf51 (UniProt A6NDU8)
inactive: lapatinib 0.018 | pictilisib -0.003 | crizotinib -0.024 | [1] 0.039 | duvelisib -0.023 | gandotinib -0.143 | tozasertib -0.037 | doramapimod -0.027 | bafetinib -0.031 | [2] -0.037 | nilotinib -0.061 | [3] 0.006 | dasatinib -0.029 | [4] 0.017 | [5] 0.02 | quisinostat -0.066 | tipifarnib 0.026 | [6] 0.1 | [7] 0.002 | [8] -0.023

CALCOCO2 isoform 4 (UniProt Q13137)
inactive: lapatinib -0.007 | pictilisib -0.015 | crizotinib 0.009 | [1] -0.066 | duvelisib 0.016 | gandotinib 0.034 | tozasertib 0.019 | doramapimod -0.005 | bafetinib 0.009 | [2] 0.035 | nilotinib -0.018 | [3] 0.035 | dasatinib -0.005 | [4] 0.035 | [5] 0.024 | quisinostat 0 | tipifarnib 0.021 | [6] 0.009 | [7] 0.003 | [8] -0.008

Further records follow:

CAMKK1 isoform 2 (UniProt Q8N5S9)
inactive: lapatinib 0.061 | pictilisib -0.074 | crizotinib -0.023 | [1] 0.032 | duvelisib -0.069 | tozasertib -0.067 | doramapimod 0.016 | bafetinib -0.021 | [2] -0.033 | nilotinib -0.013 | [3] 0.144 | dasatinib 0.05 | [4] 0.064 | [5] 0.189 | quisinostat -0.072 | tipifarnib -0.064 | [6] 0.047 | [7] -0.002 | [8] 0.007
active: gandotinib 0.424

CAND2 (UniProt O75155)
inactive: lapatinib -0.003 | pictilisib -0.003 | crizotinib -0.016 | [1] 0 | duvelisib 0.002 | gandotinib -0.043 | tozasertib 0.014 | doramapimod 0.004 | bafetinib 0 | [2] 0.035 | nilotinib -0.001 | [3] -0.007 | dasatinib -0.01 | [4] 0.001 | [5] -0.005 | quisinostat 0.003 | tipifarnib 0.004 | [6] -0.007 | [7] -0.008 | [8] 0.008

BYSL (UniProt Q13895)
inactive: lapatinib -0.012 | pictilisib 0.019 | crizotinib -0.007 | [1] 0.023 | duvelisib -0.02 | gandotinib -0.087 | tozasertib 0.004 | doramapimod 0.003 | bafetinib -0.105 | [2] 0.037 | nilotinib -0.013 | [3] -0.017 | dasatinib -0.017 | [4] 0.002 | [5] 0.008 | quisinostat 0.04 | tipifarnib 0.023 | [6] 0.013 | [7] 0.037 | [8] 0.034

CAAP1 (UniProt Q9H8G2)
inactive: lapatinib -0.034 | pictilisib 0.016 | crizotinib -0.038 | [1] -0.064 | duvelisib 0.085 | gandotinib 0.183 | tozasertib 0.001 | doramapimod 0.091 | bafetinib -0.056 | [2] 0.025 | nilotinib -0.044 | [3] 0.046 | dasatinib -0.009 | [4] 0.011 | [5] -0.088 | quisinostat -0.077 | tipifarnib 0.03 | [6] -0.117 | [7] 0.055 | [8] -0.033

CAPN15 (UniProt O75808)
inactive: lapatinib 0.063 | pictilisib -0.046 | crizotinib -0.047 | [1] 0.004 | duvelisib -0.022 | gandotinib -0.033 | tozasertib 0.042 | doramapimod 0.106 | bafetinib -0.003 | [2] -0.01 | nilotinib 0.018 | [3] -0.045 | dasatinib -0.124 | [4] 0.014 | [5] 0.007 | quisinostat 0 | tipifarnib 0.04 | [6] 0.025 | [7] -0.08 | [8] 0.054

CANX isoform 2 (UniProt P27824)
inactive: lapatinib 0.018 | pictilisib 0.037 | crizotinib -0.002 | [1] -0.037 | duvelisib 0.015 | gandotinib 0.026 | tozasertib 0.015 | doramapimod 0.006 | bafetinib 0.017 | [2] 0.052 | nilotinib -0.006 | [3] 0.008 | dasatinib 0.012 | [4] -0.02 | [5] -0.02 | quisinostat -0.029 | tipifarnib -0.064 | [6] -0.011 | [7] -0.004 | [8] -0.011

C8orf76 (UniProt Q96K31)
inactive: lapatinib 0 | pictilisib 0.063 | crizotinib -0.002 | [1] 0.017 | duvelisib 0.046 | gandotinib 0.015 | tozasertib -0.021 | doramapimod 0.021 | bafetinib 0.04 | [2] -0.005 | nilotinib -0.01 | [3] -0.05 | dasatinib 0.065 | [4] 0.039 | [5] 0.039 | quisinostat -0.005 | tipifarnib 0.016 | [6] 0.003 | [7] -0.014 | [8] -0.032

C5orf22 (UniProt Q49AR2)
inactive: lapatinib 0.02 | pictilisib 0.004 | crizotinib 0.015 | [1] -0.01 | duvelisib 0.011 | gandotinib -0.012 | tozasertib -0.016 | doramapimod -0.003 | bafetinib 0.004 | [2] 0.018 | nilotinib -0.002 | [3] -0.017 | dasatinib 0.035 | [4] -0.003 | [5] -0.009 | quisinostat 0.006 | tipifarnib 0.008 | [6] 0.006 | [7] -0.006 | [8] -0.003

C8orf33 isoform 2 (UniProt Q9H7E9)
inactive: lapatinib -0.029 | pictilisib -0.037 | crizotinib -0.041 | [1] 0.01 | duvelisib 0.109 | gandotinib -0.081 | tozasertib 0.008 | doramapimod 0.012 | bafetinib -0.044 | [2] -0.047 | nilotinib -0.018 | [3] 0.004 | dasatinib 0.086 | [4] -0.019 | [5] -0.048 | quisinostat 0.004 | tipifarnib 0.066 | [6] -0.071 | [7] -0.036 | [8] 0.103

CAMK2G isoform 8 (UniProt Q13555)
inactive: lapatinib -0.013 | pictilisib -0.008 | crizotinib -0.177 | [1] -0.053 | duvelisib -0.083 | gandotinib 0.085 | tozasertib -0.037 | doramapimod -0.049 | bafetinib 0.001 | [2] -0.07 | nilotinib -0.007 | dasatinib -0.034 | [4] 0.039 | [5] -0.062 | quisinostat -0.125 | tipifarnib -0.005 | [6] 0.219 | [7] 0.019 | [8] -0.125
active: [3] 0.518
